US20160319367A1, “MEANS AND METHODS FOR TYPING A BREAST CANCER PATIENT AND ASSIGNING THERAPY BASED ON THE TYPING” (STICHTING HET NEDERLANDS KANKER INSTITUUT-ANTONI VAN …, priority 2013, published 2016)

Test system: ZR-75-1 cells
Assay: Colony formation / proliferation assay in ZR-75-1 cells
Assay type: cell-based, human
Conditions: 1 μM 4OH-tamoxifen or 10^-7 M fulvestrant
Procedure: The human breast cancer cell lines ZR-75-1 (ATCC CRL-1500), MDA-MB-231 (ATCC HTB-26) and T47D (ATCC HTB133) were cultured in DMEM supplemented with 10% FCS, 2 mM glutamine, 100 μg/ml penicillin, 100 μg/ml streptomycin, and 1 nM estradiol at 37° C. in 5% CO2. […] Phoenix cells (ATCC CRL-3214) were cultured at 37° C. in 5% CO2 in DMEM with 10% FCS, 2 mM glutamine, 100 μg/ml penicillin, and 100 μg/ml streptomycin.
Cells were infected with retroviral supernatant and selected with puromycin (2.0 μg/ml). […] When colonies appeared, cells were fixed in MeOH/HAc (3:1) and subsequently stained with 50% MeOH/10% HAc/0.1% Coomassie.

## CC/C(=C(\c1ccccc1)c1ccc(OCCN(C)C)cc1)c1ccccc1.O=C(O)CC(O)(CC(=O)O)C(=O)O [tamoxifen, (Z)2-[4-(1,2-diphenyl-1-butenyl)phenoxy]-N, N-dimethylethanamine 2-hydroxy-1,2,3-propanetricarboxylate (1:1)]
  cell proliferation: proliferation arrest
